# Hit rate of the full screen: of about 2,300 compounds, about 1,200 (52%) were called active. The set was probably picked from earlier hits. Inconclusive results, whose numbers are uncertain, are shown with a selection of clear calls. The call rests on the fitted dose curve; in most records, active means well fitted inhibition curve with a large enough effect; inconclusive means small, poorly fitted or top-dose-only effect, or effect the other way; inactive means no such curve, though single readings can be large or run the other way. Where the call is inconclusive, the potency comes from a doubtful curve fit. Square brackets hold non-standard residues; d marks the D form. Peptide text beside a SMILES is read from it. * marks the point of attachment. ξ: configuration not given here. ξF = NC(Cc1ccccc1)C(=O)O; Cbz = O=C(OCc1ccccc1)*
# Test: Confirmation screen for delayed death inhibitors of the malarial parasite plastid, 48 hour incubation; further: nearly all actives have a fitted effect of over 65% in size
# Conditions: P. falciparum-infected erythrocytes, luciferase growth; series mostly up to 28.7 µM; activity change, negative = inhibition: at the top concentration
# In short: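 Erythrocytes infected with luciferase-expressing P. falciparum (2% hematocrit, 0.1% parasitemia) incubated with compounds 48 hours at 37 C, 5% CO2, in RPMI/Albumax. Growth inhibition scored as reduced luminescence after detection reagent.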
# On the % scale 0 is the no-effect control and ±100 the full control effect; potency means the concentration at half of the fitted maximal effect.
Structure (SMILES),Potency,"activity change, negative = inhibition"
Cn1cc([N+](=O)[O-])c(C(=O)Nc2cc(Oc3ccccc3)cc([N+](=O)[O-])c2)n1,"inconclusive: 1.41 µM [activator, partial curve]",–
C[C@H](NC(=O)c1nc[nH]c1C(=O)N[C@H](C)c1ccccc1)C(=O)OCc1ccccc1,–,inactive: -22.9%
CCCc1c(NC(=O)Nc2ccc(F)cc2)cnn1-c1ccc(Cl)cc1,active: 12.6 µM,–
CCCc1nnc(NC(=O)c2nc(S(=O)(=O)Cc3cccc(C)c3)ncc2Cl)s1,–,inactive: -23.9%
O=C(CC(SCCO)c1ccc(F)cc1)c1ccco1 (stereo unspecified),–,inactive: -19.4%
CC(CCc1ccccc1)NC(=O)COC(=O)c1ccc(S(C)(=O)=O)c([N+](=O)[O-])c1 (stereo unspecified),–,inactive: -31.9%
Cc1ccc(-c2csc(N/N=C/c3ccco3)n2)c(C)c1,"inconclusive: 14.1 µM [inhibitor, single point]",–
CCC(=O)Nc1ccc2c(c1)ncn2-c1ccccc1OC,"inconclusive: 8.91 µM [inhibitor, partial curve]",–
C/C(CC(=O)NC1CCCCC1)=N\NC(=O)COc1ccc(C)cc1Br,–,inactive: -22.2%
CC(C)(C)NC(=O)[C@H]1CN(Cc2cccnc2)CCN1C[C@@H](O)C[C@@H](Cc1ccccc1)C(=O)N[C@H]1c2ccccc2C[C@H]1O,active: 7.94 µM,–
Cc1cc(C(=O)OC(C)C(=O)Nc2nc(-c3ccccc3)cs2)c(C)o1 (stereo unspecified),–,inactive: -23.8%
O=[N+]([O-])/C=C\c1ccc(N2CCCC2)c(F)c1,–,inactive: -22.9%
CCN(CC)S(=O)(=O)c1ccc(N2CCc3ccccc3C2)nc1,"inconclusive: 15.8 µM [inhibitor, single point]",–
O=C1C2CCCN2C(c2ccc(F)cc2)N1c1ccc(Cl)cc1 (stereo unspecified),"inconclusive: 15.8 µM [inhibitor, single point]",–
O=C(CSc1nc(-c2ccccc2)cs1)Nc1cccc([N+](=O)[O-])c1,–,inactive: -33.8%
Cc1ccc(C(=O)NC2CCCC2)cc1S(=O)(=O)N1CCCCC1,active: 11.2 µM,–
COc1ccccc1N1CCN(Cc2nc3ccccc3[nH]2)CC1,"inconclusive: 12.6 µM [inhibitor, partial curve, poor fit]",–
CC(C)(C)OC(=O)NCCCCCNC(=O)c1[nH]cnc1C(=O)Nc1nccs1,active: 10 µM,–
COC(=O)c1ccc(Sc2nnnn2-c2ccccc2)c([N+](=O)[O-])c1,active: 11.2 µM,–
COc1cccc(/C=C2\SC(=O)N(CCC(=O)NC3CCS(=O)(=O)C3)C2=O)c1 (stereo unspecified),–,inactive: -17.6%
CCCOc1ccc(/C=C/C(=O)NC2CCCCC2)cc1OC,"inconclusive: 14.1 µM [inhibitor, partial curve]",–
CCOC(=O)c1ccc(CNC(=O)c2cc(COc3ccccc3SC)on2)o1,"inconclusive: 8.91 µM [activator, partial curve]",–
COc1ccc(CN2CCN(Cc3cc4ccccc4o3)CC2CCO)cc1C (stereo unspecified),active: 14.1 µM,–
CCc1[nH]nc(C(=O)NC2CCCc3c2cnn3-c2cc(C)cc(C)c2)c1C (stereo unspecified),"inconclusive: 8.91 µM [activator, partial curve]",–

Structure (SMILES),Potency,"activity change, negative = inhibition"
COc1ccc(C(=O)CC(SCC(NC(C)=O)C(=O)O)c2ccc(Cl)cc2)cc1OC (stereo unspecified),"inconclusive: 15.8 µM [inhibitor, single point]",–
NC(=O)CSc1nc2c(sc3ccccc32)c(=O)n1CCCN1CCOCC1,"inconclusive: 3.55 µM [inhibitor, full curve]",–
COc1ccccc1-c1nnc(NC(=O)CCS(=O)(=O)c2ccccc2)o1,"inconclusive: 15.8 µM [inhibitor, single point]",–
Cc1nn(Cc2ccccc2Cl)c(C)c1C(=O)Nc1nnc(C2CC2)s1,active: 11.2 µM,–
CC(=O)C1=C(c2ccccc2)N(C(C)=O)n2c(C)nnc2S1,"inconclusive: 14.1 µM [inhibitor, single point]",–
COC(=O)C(NC(=O)c1ccccc1C)(Nc1ncc(S(=O)(=O)c2ccc([N+](=O)[O-])cc2)s1)C(F)(F)F (stereo unspecified),active: 7.94 µM,–
O=C(NC1CCS(=O)(=O)C1)/C(=C\c1ccc(F)cc1)NC(=O)c1ccccc1 (stereo unspecified),active: 15.8 µM,–
COC(=O)c1sc(N2C(=O)C(O)=C(C(=O)c3ccc(C)o3)C2c2ccc(OC)c(OC)c2)nc1C (stereo unspecified),"inconclusive: 15.8 µM [inhibitor, single point]",–
COc1ccc2c(ccc[n+]2CC(=O)c2ccccc2)c1,"inconclusive: 14.1 µM [inhibitor, single point]",–
O=C(N1CCOCC1)N1c2ccccc2CC(N2CCOCC2)c2ccccc21 (stereo unspecified),"inconclusive: 14.1 µM [inhibitor, partial curve, poor fit]",–
C=CCN1C(=O)[C@@H]2Cc3c([nH]c4ccccc34)C(c3ccc(O)cc3)N2C1=S (stereo partly specified),active: 12.6 µM,–
CCOc1ccc(NC(=O)CSc2nnnn2C2CC2)cc1S(=O)(=O)N1CCCC1,"inconclusive: 15.8 µM [inhibitor, single point]",–
COCCn1c(SCC(=O)Nc2ncc(Cl)c(C)c2Cl)nc2ccccc21,–,inactive: -29.3%
CC(C)C1C(=O)CC(c2ccccc2)NC1c1ccccc1 (stereo unspecified),"inconclusive: 15.8 µM [inhibitor, partial curve, poor fit]",–
CCc1c(C(=O)NCCc2cccc(C)c2)[nH]c(C)c1C(C)=O,"inconclusive: 14.1 µM [inhibitor, single point]",–
CCCCOC(=O)/C=C\C(=O)NC(N)=O,"inconclusive: 14.1 µM [inhibitor, partial curve, poor fit]",–
CCOC(=O)c1ccc(NC(=O)c2c(Cl)cc(C)nc2C)cc1,"inconclusive: 15.8 µM [inhibitor, single point]",–
CCC1CCCCN1CCCNC(=O)c1ccc(CS(=O)(=O)c2ccc(Br)cc2)o1 (stereo unspecified),"inconclusive: 11.2 µM [inhibitor, partial curve]",–
Cn1c(CCN2CCCCC2)nc2cc([N+](=O)[O-])ccc21,"inconclusive: 7.08 µM [inhibitor, single point]",–
COc1cccc(CNC(=O)c2cc3oc4ccccc4c3n2C)c1OC,–,inactive: 4.7%
Cc1c(OCC(=O)NCc2cccnc2)ccc2c3c(c(=O)oc12)CCC3,–,inactive: -10.9%
O=C(CN1C2=NCCCN2c2ccccc21)c1ccc2c(c1)OCO2,active: 11.2 µM,–
O=C(CSc1nc2cc([N+](=O)[O-])ccc2n1-c1ccccc1)NCc1ccc2c(c1)OCO2,active: 11.2 µM,–
O=C1/C(=C\c2ccncc2)CCc2ccccc21,"inconclusive: 15.8 µM [inhibitor, single point]",–

# Record cards, from the list above.
# O=C(CSc1nc2cc([N+](=O)[O-])ccc2n1-c1ccccc1)NCc1ccc2c(c1)OCO2 is listed with Potency: active: 11.2 µM
# O=C(NC1CCS(=O)(=O)C1)/C(=C\c1ccc(F)cc1)NC(=O)c1ccccc1 (stereo unspecified) is listed with Potency: active: 15.8 µM
# NC(=O)CSc1nc2c(sc3ccccc32)c(=O)n1CCCN1CCOCC1 is listed with Potency: inconclusive: 3.55 µM [inhibitor, full curve]
# Cc1nn(Cc2ccccc2Cl)c(C)c1C(=O)Nc1nnc(C2CC2)s1 is listed with Potency: active: 11.2 µM

# (next part)

Structure (SMILES),Potency,"activity change, negative = inhibition"
CCn1c(=O)cc(C(=O)OC)sc1=Nc1ccc(F)c(F)c1,–,inactive: -21.8%
Cc1ccc(-c2nc(CCN3C(=O)c4ccccc4C3=O)cs2)cc1,"inconclusive: 3.16 µM [activator, partial curve, poor fit]",–
COc1cccc(CNc2cc(C)ccn2)c1O,"inconclusive: 22.4 µM [inhibitor, single point]",–
Cc1oc(/C=N/NS(=O)(=O)c2ccccc2)cc1Br,–,inactive: 0.292%
CN(Cc1c(C(=O)N/N=C/c2cccc(O)c2)nnn1-c1nonc1N)c1ccccc1,–,inactive: 1.84%
O=C(N/N=C/c1ccc(O)cc1)c1cc(-c2ccccc2)nc2ccccc12,"inconclusive: 22.4 µM [inhibitor, single point]",–
COCCCNCCC(CCC(C)C)c1ccc2c(c1)OCO2 (stereo unspecified),"inconclusive: 14.1 µM [inhibitor, single point]",–
O=C(COc1ccccc1)Nc1nnc(-c2ccc(F)cc2)o1,–,inactive: -3.47%
COC(=O)COc1ccc2c(=O)c(-c3ccccc3OC)coc2c1,"inconclusive: 12.6 µM [inhibitor, partial curve, poor fit]",–
COc1ccc(-c2oc3ncn(Cc4ccco4)c(=N)c3c2-c2ccc(OC)cc2)cc1,active: 7.94 µM,–
CCOC(=O)CNC(=O)C(Cc1ccccc1)NC(=O)OCc1ccccc1 (stereo unspecified) (Cbz-[ξF]-Gly-OEt),–,inactive: -0.99%
Cc1cccc(NC(=O)c2cn(-c3ccccc3)nc2-c2ccccc2)c1,"inconclusive: 15.8 µM [inhibitor, single point]",–
c1csc(CNc2ncnc3nc[nH]c23)c1,"inconclusive: 11.2 µM [inhibitor, partial curve, poor fit]",–
O=C(Cc1ccccc1)Nc1ccc(C(=O)NCC2COc3ccccc3O2)cc1 (stereo unspecified),"inconclusive: 15.8 µM [inhibitor, single point]",–
O=C(NCc1ccc(F)cc1)C1CCN(S(=O)(=O)c2ccc(Br)s2)CC1,active: 12.6 µM,–
Cn1c(=O)[nH]c(=O)c2c1nc(SCCN1CCCCC1)n2CCCc1ccccc1,"inconclusive: 7.08 µM [inhibitor, partial curve]",–
CCOC(=O)CNC(c1ccccc1)c1cc(Br)ccc1NC(=O)CCN1CCOCC1 (stereo unspecified),"inconclusive: 10 µM [inhibitor, partial curve]",–
O=C(CCCOc1ccc(Cl)cc1Cl)Nc1ccccc1C(=O)O,"inconclusive: 2 µM [activator, full curve, poor fit]",–
CCc1ccc(S(=O)(=O)NCc2csc(-c3cccnc3)n2)s1,"inconclusive: 17.8 µM [inhibitor, partial curve, poor fit]",–
COc1cccc(CNC(=O)C2CCN(S(=O)(=O)c3cccc4nonc34)CC2)c1,"inconclusive: 17.8 µM [inhibitor, single point]",–
Cc1cc(C)c(/C=C(\C#N)C(N)=S)c(C)c1,–,inactive: -25.2%
O=C1NC(=Nc2ccccc2)S/C1=C\c1ccccc1,"inconclusive: 11.2 µM [inhibitor, partial curve]",–
CCN(CC)CCn1c(SCC(=O)NCc2ccccc2)nc2c(sc3ccccc32)c1=O,"inconclusive: 12.6 µM [inhibitor, partial curve]",–
